Data as given in PubChem BioAssay AID686937 (Drosophila RNAi Screening Center, 2013)
Screen: 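Knock-downs that reduce output of a secreted reporter enzyme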 (primary screen). Cell system: Drosophila S2 cells expressing secreted horseradish peroxidase. Reagent: long dsRNA against Drosophila genes. Duration: about 5.5 days (5 days dsRNA, then 12 h reporter induction). Treatment: reporter expression induced after 5 days of dsRNA, read 12 h later; inducer not stated. Measurement: 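Chemiluminescent measurement of peroxidase in the medium 12 h after reporter induction, following 5 days of dsRNA, given as a z-score per plate; higher means more secretion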. Direction: z-score: higher = more reporter secreted into medium.
In all, the deposit lists about 23,000 reagents; below is an unselected part of those that have a named target and a result. 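Reduced-secretion tags in replicate 1 do not always agree with the z-scores; no criterion for assigning the tags was given.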 Not all columns of the deposit are shown. The record does not give: the amount of reagent.

How did the screen score CG31161 [DRSC16144]?
z-score, replicate 1: -2.02; phenotype, replicate 1: reduced secretion

With Wnt5 (Wnt oncogene analog 5) [DRSC20300], what does the deposit list?
z-score, replicate 1: 0.02

What is on record for CG30222 [DRSC04125]?
z-score, replicate 1: -0.61

For CG30222 [DRSC04262], how do the results read?
z-score, replicate 1: -0.07

For CG42561 [DRSC05676], how do the results read?
z-score, replicate 1: 0.16

How did the screen score CG8419 [DRSC03087]?
z-score, replicate 1: 0.76

What did the screen give for GluRIIA (Glutamate receptor IIA) [DRSC03334]?
z-score, replicate 1: -0.32

What is on record for CG43342 [DRSC13561]?
z-score, replicate 1: 0.2

For Ctl1 (Choline transporter-like 1) [DRSC08303], how do the results read?
z-score, replicate 1: 0.38

What did the screen give for Sec63 (Secretory 63) [DRSC11002]?
z-score, replicate 1: -0.39

Which result is listed for CG15211 [DRSC19657]?
z-score, replicate 1: 0.19

Which result is listed for Mrp5 (Multidrug resistance protein 5) [DRSC15597]?
z-score, replicate 1: 0.42

For Mrp5 (Multidrug resistance protein 5) [DRSC15598], how do the results read?
z-score, replicate 1: 0.43

What is on record for Syn (Synapsin) [DRSC16876]?
z-score, replicate 1: 0.1

Which result is listed for c12.1 [DRSC18750]?
z-score, replicate 1: -1.04

For CG43108 [DRSC05654], how do the results read?
z-score, replicate 1: 0.19

Which result is listed for chn (charlatan) [DRSC06086]?
z-score, replicate 1: -0.21

What did the screen give for kek5 (kekkon 5) [DRSC19438]?
z-score, replicate 1: 0.43

For CG7848 [DRSC07050], what was measured?
z-score, replicate 1: 0.11

What is on record for Irp-1B (Iron regulatory protein 1B) [DRSC16720]?
z-score, replicate 1: 0.16

With BG642163 [DRSC00342], what was measured?
z-score, replicate 1: 0.26

What did the screen give for BG642163 [DRSC00343]?
z-score, replicate 1: 0.11

With Lamtor5 (Late endosomal/lysosomal adaptor, MAPK and MTOR activator 5) [DRSC18491], what was measured?
z-score, replicate 1: -0.14

With Nelf-A (Negative elongation factor A) [DRSC15903], what was measured?
z-score, replicate 1: 0.64

For CG13743 [DRSC05139], how do the results read?
z-score, replicate 1: 0.82

For CG13743 [DRSC06414], how do the results read?
z-score, replicate 1: -0.35

What did the screen give for CG13743 [DRSC22775]?
z-score, replicate 1: 0.06
